In article PMC5541716:
These are yes or no findings as the source states them, for the method shown. In cells and extracts the contact can be indirect. Some binding calls cover weakened binding; strength is not graded here. One block for each binder: values may come before it.

What was measured:
[1] = molecular target: histone H2A member X (H2AX), endogenous in MHCC-97 L cells (human (endogenous in MHCC-97 L)) (UniProt P16104); assay: co-IP; endogenous proteins, mitochondrial fraction; immunoprecipitation with ASPH antibody or H2AX antibody
[2] = molecular target: histone H2A member X (H2AX), endogenous in MHCC-97 L cells (human (endogenous in MHCC-97 L)) (UniProt P16104); assay: co-IP; endogenous proteins, total cell lysates of MHCC-97 L cells; immunoprecipitation with ASPH antibody or H2AX antibody
[3] = molecular target: histone H2A member X (H2AX), endogenous in HepG2 cells (human (endogenous in HepG2)) (UniProt P16104); assay: co-IP; HepG2 cells overexpressing ASPH or control vector; immunoprecipitation with H2AX antibody, immunoblot with ASPH, POLG and mTFA antibodies

binding [1]: binds | binding [2]: binds
B1: aspartate β-hydroxylase (ASPH), endogenous in MHCC-97 L cells (enzyme, UniProt Q12797 1-758)
chain: MAQRKNAKSSGNSSSSGSGSGSTSAGSSSPGARRETKHGGHKNGRKGGLSGTSFFTWFMVIALLGVWTSVAVVWFDLVDYEEVLGKLGIYDADGDGDFDVDDAKVLLGLKERSTSEPAVPPEEAEPHTEPEEQVPVEAEPQNIEDEAKEQIQSLLHEMVHAEHVEGEDLQQEDGPTGEPQQEDDEFLMATDVDDRFETLEPEVSHEETEHSYHVEETVSQDCNQDMEEMMSEQENPDSSEPVVEDERLHHDTDDVTYQVYEEQAVYEPLENEGIEITEVTAPPEDNPVEDSQVIVEEVSIFPVEEQQEVPPETNRKTDDPEQKAKVKKKKPKLLNKFDKTIKAELDAAEKLRKRGKIEEAVNAFKELVRKYPQSPRARYGKAQCEDDLAEKRRSNEVLRGAIETYQEVASLPDVPADLLKLSLKRRSDRQQFLGHMRGSLLTLQRLVQLFPNDTSLKNDLGVGYLLIGDNDNAKKVYEEVLSVTPNDGFAKVHYGFILKAQNKIAESIPYLKEGIESGDPGTDDGRFYFHLGDAMQRVGNKEAYKWYELGHKRGHFASVWQRSLYNVNGLKAQPWWTPKETGYTELVKSLERNWKLIRDEGLAVMDKAKGLFLPEDENLREKGDWSQFTLWQQGRRNENACKGAPKTCTLLEKFPETTGCRRGQIKYSIMHPGTHVWPHTGPTNCRLRMHLGLVIPKEGCKIRCANETKTWEEGKVLIFDDSFEHEVWQDASSFRLIFIVDVWHPELTPQQRRSLPAI

binding [3]: binds
B2: ASPH overexpressed in HepG2 cells (HepG2-ASPH) (enzyme, UniProt Q12797 1-758)
chain: B1 chain

binding [3]: binds
B3: mitochondrial transcription factor A (mtTFA), endogenous in HepG2 cells (protein, UniProt Q00059 43-246)
chain: SSVLASCPKKPVSSYLRFSKEQLPIFKAQNPDAKTTELIRRIAQRWRELPDSKKKIYQDAYRAEWQVYKEEISRFKEQLTPSQIMSLEKEIMDKHLKRKAMTKKKELTLLGKPKRPRSAYNVYVAERFQEAKGDSPQEKLKTVKENWKNLSDSEKELYIQHAKEDETRYHNEMKSWEEQMIEVGRKDLLRRTIKKQRKYGAEEC
